Reference: patent publication US20220008376A1, “INHIBITORS OF TYPE 3 SECRETION SYSTEM AND ANTIBIOTIC THERAPY” (priority 2018, published 2022)
For some of these results: At least one peptide structure holds a part that was inferred or is arguable (an end, a ring closure or a residue). Some entries share one result that the patent states for a list of compounds. Where no end group is shown, it is not given here.

Amino acid sequences for entries named in this document (tags omitted). Residues count along the entry.
UniProt P95435, 1-114: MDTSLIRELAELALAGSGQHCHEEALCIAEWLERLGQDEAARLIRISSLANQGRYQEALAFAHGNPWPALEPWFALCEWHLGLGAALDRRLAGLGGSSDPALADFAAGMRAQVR

Assays:
[1] = system: PAO1; assay: Survival study, murine model of acute pneumonia; type: in vivo, C57BL/6J mice; conditions: 100 μM intranasal at time of infection and every 12 h; 1×10^7 CFU PAO1
Protocol: Animal studies. 6-week-old female C57BL/6J mice used in this study were acquired from the Experimental Animal Center of Xian Jiaotong University. All the animals were maintained in animal care facilities in the School of Life Science and Technology, and provided with food and water ad libitum. The animal studies were approved by the Committee on Animal Research and Ethics, Xi'an Jiaotong University.
For survival study, tanshinone inhibitors (100 μM, 1% DMSO, in 10 μL PBS) were administrated to the infected animals intranasally at the time of infection, or 8 h after infection, and every 12 hours till the death of the animal or the end of the experiment. PBS containing 1% DMSO was used as mock treatment.

[2] = system: cytotoxicity of PAO1 to murine macrophages (J774A.1); assay: Cytoplasmic lactate dehydrogenase (LDH) release assay, PAO1-infected macrophages; type: cell-based, mouse; conditions: 100 μM
Description: Cytoplasmic lactate dehydrogenase (LDH) release assay. […] LDH released into supernatant was detected by LDH detection kit (Beyotime, C0017) as instructed by the manufacturer.

[3] = target: T1, PscE-PscG dimer (Pseudomonas aeruginosa, UniProt P95435); assay: Isothermal titration calorimetry, binding to preformed PscE-PscG dimer; conditions: 25° C., 10 mM Tris, 150 mM NaCl, 1 mM EDTA, pH 7.0; read-out: KD, ITC, preformed PscE-PscG dimer
T1 construct: made in house; host or cells: total chemical synthesis (solid phase peptide synthesis and native chemical ligation), no expression host

[4] = target: PscE-PscG heterodimer (Pseudomonas aeruginosa, UniProt P95435); design: made in house; host or cells: total chemical synthesis (solid phase peptide synthesis and native chemical ligation), no expression host; conditions: read-out: IC50, competition with FAM-PscF69-85 for PscE-PscG binding; FP, room temperature, 10 mM Tris, 150 mM NaCl, 1 mM EDTA, pH 7.0
Protocol: Fluorescence polarization (FP) and FP-based competitive binding assays. All fluorescence polarization assays were done using black, low protein binding 96-well plates (Thermo Fisher Scientific) in a total volume of 100 μl per well of 10 mM Tris buffer containing 150 mM NaCl and 1 mM EDTA, pH 7.0, unless indicated otherwise. After a gentle mixing and incubation for 3 h, FP readings were taken at 470 nm (excitation) and 530 nm (emission) wavelengths on a Tecan Infinite M2000 fluorescence plate reader. Nonlinear regression analyses were performed to give rise to Kd and IC50 values as previously described.
For direct binding of PscF to PscG or PscE-PscG, equal volumes of FAM-PscF^69-85 (400 nM) and serially diluted PscG or PscE-PscG (0-64 μM) were mixed. For initial screening, 95 μl of FAM-PscF^69-85-PscE-PscG (100 nM) in the assay buffer was mixed with 5 μl of small molecule inhibitor in DMSO to a final molar concentration of 1, 10, 100, or 1000 μM. 5% DMSO and 6 M GuHCl in the final assay buffer were used as negative and positive controls, respectively. For secondary screening or competitive binding assays, 95 μl of FAM-PscF^69-85-PscE-PscG (100 nM) in the assay buffer was mixed with 5 μl of serially diluted PscF^69-85 or various tanshinone analogs (0-200 μM).

[5] = target: T2, PscG (Pseudomonas aeruginosa, UniProt P95435); type: binding; conditions: read-out: KD, ITC, PscG alone; 25° C., 10 mM Tris, 150 mM NaCl, 1 mM EDTA, pH 7.0
T2 construct: made in house; host or cells: total chemical synthesis (solid phase peptide synthesis and native chemical ligation), no expression host

Molecule | infected mice surviving beyond 96 h, treatment from time of infection [1] | inhibition of the cytotoxicity of PAO1 to macrophages [2] | Kd [3] [µM] | IC50 [4] [µM] | Kd [5] [µM]
Cc1cccc2c3c(ccc12)C1=C(C(=O)C3=O)[C@@H](C)CO1 [dHTSN1, dihydrotanshinone 1] | over 90% | less than 70% |  |  | 
TVTRALRDLMQGILQKI-NH2 [PscF^69-85] |  |  | 0.0515 | 4.32 | 10.5
Cc1cccc2c3c(ccc12)C(=O)C1=C(OC[C@H]1C)C3=O [dHTSN] | over 90% | less than 70% |  |  | 
